From paper PMC4758730 come the findings set out here.

Results are given in words; binding and its absence hold for the method and conditions named. Binding seen in cells or lysates may run through a third protein. A yes stands for co-enrichment or nearness to the bait. Other partners may have been found. For some assays here: No binding means not detected with the bait.

In one assay the target is T1, Din1-FTP (S. pombe) (UniProt O13836).
T1 sequence: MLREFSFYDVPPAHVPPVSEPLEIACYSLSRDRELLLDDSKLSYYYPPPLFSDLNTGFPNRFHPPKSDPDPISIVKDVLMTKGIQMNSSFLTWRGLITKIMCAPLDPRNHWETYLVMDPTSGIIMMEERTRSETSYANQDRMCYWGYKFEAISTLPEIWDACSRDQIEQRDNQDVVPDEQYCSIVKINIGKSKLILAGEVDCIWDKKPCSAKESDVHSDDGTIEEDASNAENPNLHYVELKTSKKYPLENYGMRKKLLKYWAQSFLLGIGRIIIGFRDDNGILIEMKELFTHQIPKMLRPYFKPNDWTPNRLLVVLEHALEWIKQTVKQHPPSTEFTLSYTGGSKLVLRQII
Nature of the assay: affinity purification with mass spectrometry; two-step affinity purification of FTP-tagged bait (Flag-TEV-protein A) from S. pombe, in the presence of Benzonase; co-purified proteins identified by LC-MS/MS; untagged strain as control.

The target in the next assay is T2, Dhp1-FTP (S. pombe) (UniProt P40848).
T2 sequence: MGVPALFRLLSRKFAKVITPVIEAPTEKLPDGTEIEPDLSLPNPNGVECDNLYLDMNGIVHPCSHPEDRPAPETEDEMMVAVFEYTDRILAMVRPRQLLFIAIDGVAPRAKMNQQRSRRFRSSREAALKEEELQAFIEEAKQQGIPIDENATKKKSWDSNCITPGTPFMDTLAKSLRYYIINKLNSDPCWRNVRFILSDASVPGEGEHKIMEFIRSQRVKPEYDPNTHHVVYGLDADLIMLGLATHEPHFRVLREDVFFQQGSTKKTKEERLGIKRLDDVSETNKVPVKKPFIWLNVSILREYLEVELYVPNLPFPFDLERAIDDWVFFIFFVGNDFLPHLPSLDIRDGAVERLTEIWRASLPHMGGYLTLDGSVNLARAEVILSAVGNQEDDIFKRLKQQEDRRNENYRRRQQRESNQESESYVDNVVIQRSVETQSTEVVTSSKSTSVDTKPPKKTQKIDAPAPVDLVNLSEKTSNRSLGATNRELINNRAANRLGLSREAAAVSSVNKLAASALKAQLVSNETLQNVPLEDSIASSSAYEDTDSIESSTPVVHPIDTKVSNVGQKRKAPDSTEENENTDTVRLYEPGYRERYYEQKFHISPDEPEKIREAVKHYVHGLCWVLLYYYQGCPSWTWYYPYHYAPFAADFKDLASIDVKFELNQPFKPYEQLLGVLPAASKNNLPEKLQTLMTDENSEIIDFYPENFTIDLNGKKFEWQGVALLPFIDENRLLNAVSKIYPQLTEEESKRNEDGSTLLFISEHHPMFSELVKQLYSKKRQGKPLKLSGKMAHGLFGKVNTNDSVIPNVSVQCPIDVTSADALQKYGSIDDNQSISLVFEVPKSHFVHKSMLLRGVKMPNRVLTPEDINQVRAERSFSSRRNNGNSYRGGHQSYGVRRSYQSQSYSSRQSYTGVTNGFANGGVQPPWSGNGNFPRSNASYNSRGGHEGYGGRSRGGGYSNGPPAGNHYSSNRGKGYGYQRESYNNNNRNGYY
Described as above.

B1: exosome subunit Rrp6 (enzyme, UniProt Q10146 1-777)
chain: MDESELFKGLMNSTAYCSELAKVDIPFYKSIDTEFNENIKSVSSRFMRLIELLLSKVDRSRAEDIVDVEDIDNRWAEVSDTLDILFEKADYSIDKAQGLLKKPAIETHASTSDVANKKPKKEKLPYKVIHAAHLTKPQLRFRVQPNNSREFVWSWKLTEKPHSLVPLEKIIAQVKLDPSLKNSLPHPYEPEIQNSVYPPWVSEMSNPIDTGSVDETEPIWVSTESQLSDMLKELQNSKEIAVDLEHHDYRSFRGFVCLMQISNREKDWIVDTLELREELEALNVVFTNPNIIKVFHGATMDIIWLQRDFGLYVVNLFDTYYATKVLGFEGHGLAFLLQKYCDYDADKRYQMADWRIRPLPREMLKYAQSDTHYLLYIWDHLRNELISKSAERKENLMQSVFNSSKQISLRKYELEPYDPIYGLGTDGWRNVLTKFGSSKIIGREALMIYRALHDWRDSVARKEDESVRYVLPNRLLIAIAASKPVEAADVFSISKQLTPIARMYVEDIVKVVQEAEKLYNEQVDREKSQFKEVEKQNQPLAVFSESNTLGDYKVDSSVFEISKQNRSKLKTLLANGSAFWIEGQSQDDLRKARKERLFIVNQNIPFSLTLPCTQGHVESELNVKQSTVTEAANPSLNGEKKQEPIVIRDLGLNKQKRDSSKLNHKEPSNPIEERNEDIEPSEASTSVSKKRKQKKKKKNSGKLTIEAEHVSNDSPIINEAPFDYKNQKNFIADLDSDVGKNKFGKRGFNPLNKVSLPKRNTRELKKRKVSDGKSTSY
Take B1: the values for the binding result with Din1-FTP (S. pombe) and in the assay with Dhp1-FTP (S. pombe) were “no binding” and “binds”, respectively.

B2: Din1 (protein, UniProt O13836 1-352)
chain: MLREFSFYDVPPAHVPPVSEPLEIACYSLSRDRELLLDDSKLSYYYPPPLFSDLNTGFPNRFHPPKSDPDPISIVKDVLMTKGIQMNSSFLTWRGLITKIMCAPLDPRNHWETYLVMDPTSGIIMMEERTRSETSYANQDRMCYWGYKFEAISTLPEIWDACSRDQIEQRDNQDVVPDEQYCSIVKINIGKSKLILAGEVDCIWDKKPCSAKESDVHSDDGTIEEDASNAENPNLHYVELKTSKKYPLENYGMRKKLLKYWAQSFLLGIGRIIIGFRDDNGILIEMKELFTHQIPKMLRPYFKPNDWTPNRLLVVLEHALEWIKQTVKQHPPSTEFTLSYTGGSKLVLRQII
Consider B2, for which the binding entry with Dhp1-FTP (S. pombe) was “binds”.

B3: Clr4 methyltransferase complex (ClrC) subunit Rik1 (protein, UniProt Q10426 1-1040)
chain: MALCVHSFWATAVDTATSCHFISSENCLVLLQALKINIYLCSEVHGLQFFTSIPLFSTVKHIRPYRPPGLDRDYLFVVLNDDTYFSIYWDEDYQKVIVDHPPVRYRVTFPWNRNAKSYCLVDLRMRAIFLSIDEISMICIRILSAEERLKTGRSIDSGFPFSFPVHLIYDMCILNDSSTPTLVVLHSDGLDCYVTAFLLDLSSKSLGKGIRLFERVKPSMIMPFGKRGLLVFESLFIHCMYRGNFVTINGPCTTYMHWTPLKGQKMHYIVCDTNGYLFGVYSSILGKNKWSLVMERLPIPPFDFITSLNSIHEGLLFIGSKNSESKLINLSTLKDVDSIPNLGPIHDLLVLKNDIEKSFLVCAGTPRNASLIYFQHALKLDILGQTKISGILRAMVLPSYPEHKLFLGFPSETVAFNIKEDFQLELDPSLSTKERTIALSGTNGEFVQVTSTFLCIYDSAKRSRLVYIEKITNAACYQEYSAIVINGTALAIFKKDTEVARKVFESEISCLDFSAQFQIGVGFWSKQVMILTFSDNSSISCAFQTNVPSLPRNIILEGVGVDRNLLLVSSGSGEFKSYVLFKNNLVFSETKHFGTTPVSFRRFTMNIGTYIICNNDCPHMVYGFNGALCYMPLSMPQSYDVCQFRDNSGKDFLISVSLGGLKFLQLNPLPELTPRKVLLEHVPLQAIIFQNKLLLRTLENRYEDYESYKENYHLELVDSYDDNSFRVFSFTENERCEKVLKINESSLLVGTSIIEQDKLVPVNGRLILLEFEKELQSLKVVSSMVLSAAVIDLGVYNDRYIVAFGQQVAIVKLTEERLMIDSRISLGSIVLQLIVEGNEIAIADSIGRFTIMYFDGQKFIVVARYLFGENIVKAALYEGTVYIIATNSGLLKLLRYNKDAKNFNDRFICESVYHLHDKVSKFQNFPITNTNSFLEPKMLFATEIGAIGSIVSLKDKELELEELTRKIRKLKFSYLSSMDYESIEADLISPVPFIDGDLVIDVKRWASSELFRLCRSVEHRESLNSYQKVQALLEEIQSLC
On to B3, for which the binding entry with Din1-FTP (S. pombe) is “no binding”; with Dhp1-FTP (S. pombe), “binds”.
